Source: patent EP0450097B1, “BENZOHETEROCYCLIC COMPOUNDS” (OTSUKA PHARMACEUTICAL CO., LTD., priority 1989, dated 1991)
The match of structure and compound is tentative.

By UniProt entry, the sequences of proteins in these tests, tags left out.
UniProt Q00788, whole entry: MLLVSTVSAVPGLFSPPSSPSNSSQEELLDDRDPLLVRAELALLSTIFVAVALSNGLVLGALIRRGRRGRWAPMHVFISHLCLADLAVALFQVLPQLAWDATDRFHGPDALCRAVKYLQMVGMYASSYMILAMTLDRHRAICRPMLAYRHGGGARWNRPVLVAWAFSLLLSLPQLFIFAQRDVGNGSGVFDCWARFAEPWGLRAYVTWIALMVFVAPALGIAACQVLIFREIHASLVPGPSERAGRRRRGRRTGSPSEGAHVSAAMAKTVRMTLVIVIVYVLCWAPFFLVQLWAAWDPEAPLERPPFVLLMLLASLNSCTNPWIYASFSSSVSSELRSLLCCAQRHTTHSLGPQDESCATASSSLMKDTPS
UniProt P30560, whole entry: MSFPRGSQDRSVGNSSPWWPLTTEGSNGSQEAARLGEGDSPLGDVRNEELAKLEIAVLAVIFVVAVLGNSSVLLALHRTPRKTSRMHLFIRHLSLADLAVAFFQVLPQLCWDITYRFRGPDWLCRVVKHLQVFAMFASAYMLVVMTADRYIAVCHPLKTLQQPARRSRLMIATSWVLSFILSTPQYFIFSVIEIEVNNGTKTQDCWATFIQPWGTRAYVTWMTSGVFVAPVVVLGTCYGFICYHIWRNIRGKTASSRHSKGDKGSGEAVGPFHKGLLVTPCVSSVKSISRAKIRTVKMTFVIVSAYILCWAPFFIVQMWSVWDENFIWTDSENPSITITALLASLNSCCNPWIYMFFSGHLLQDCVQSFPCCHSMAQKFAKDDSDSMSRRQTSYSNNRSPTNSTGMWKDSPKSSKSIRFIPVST

Columns and labels:
V₂ receptor = V₂ receptor (Rattus norvegicus, UniProt Q00788); experiment: V₂ receptor binding assay ([³H]-Arg-vasopressin, rat kidney plasma membrane preparations); details: 4°C for 3 hours
V₁ receptor = V₁ receptor (Rattus norvegicus, UniProt P30560); experiment: V₁ receptor binding assay ([³H]-Arg-vasopressin, rat liver plasma membrane preparations); details: 37°C for 10 minutes

SMILES | IC50 (V₂ receptor) [µM] | IC50 (V₁ receptor) [µM]
O=C(c1ccc(NC(=O)C23CC4CC(CC(C4)C2)C3)cc1)N1CCCc2ccccc21 | 0.23 | 
Cc1ccccc1C(=O)Nc1ccc(C(=O)N2CCCC3(CO3)c3ccccc32)cc1 (stereo not shown) | 0.006 | 0.16
Cc1ccccc1C(=O)Nc1ccc(C(=O)N2CCS(=O)(=O)Cc3ccccc32)cc1 | 0.21 | 
